{"source": "patent US8158442B2", "about": "“Antagonists of bitter taste receptors and uses thereof” (Deutsches Institut Fuer Ernaehrungsforschung …, priority 2007, dated 2012)", "biological_target": "T1, TAS2R38 (Homo sapiens, UniProt P59533, A49P/I296V)", "T1 construct": "expressed in transfected cells; host or cells: HEK-293T cells stably expressing the chimeric G-protein subunit G16gust44", "T1 sequence (P59533 1-333 A49P/I296V)": "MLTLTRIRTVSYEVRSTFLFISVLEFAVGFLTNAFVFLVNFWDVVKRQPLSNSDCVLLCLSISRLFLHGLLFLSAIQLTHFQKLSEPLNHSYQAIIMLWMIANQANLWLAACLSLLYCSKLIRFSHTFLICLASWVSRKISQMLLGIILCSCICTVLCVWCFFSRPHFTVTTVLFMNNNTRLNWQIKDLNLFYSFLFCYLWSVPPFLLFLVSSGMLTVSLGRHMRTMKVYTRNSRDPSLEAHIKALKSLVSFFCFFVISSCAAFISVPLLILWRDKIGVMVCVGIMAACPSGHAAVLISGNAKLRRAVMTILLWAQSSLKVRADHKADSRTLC", "test": "Calcium imaging (FLIPR) of TAS2R38 transfected cells, antagonists applied as mixture with TAS2R38 agonists", "assay_type": "cell-based", "settings": "increasing diethylthiourea concentrations; phenylthiourea, propylthiouracil dose response curves", "description": "Human TAS2R38 cDNAs encoding the PAV form of the receptor was fused with a plasma membrane-targeting sequence of the rat somatostatin type 3 receptor at the N terminus of the recombinant polypeptide and a herpes simplex virus glycoprotein D (HSV) epitope at its C terminus (Bufe B., et al. (2002) Nat Genet 32:397-401). The constructs were transiently transfected into human embryonic kidney (HEK)-293T cells that stably express the chimeric G-protein subunit G16gust44 (Ueda T., et al. (2003) J Neurosci 23:7376-7380) using Lipofectamine 2000 (Invitrogen). They were then seeded at a density of ˜20-30% and transfected at ˜60% confluency in 96-well microtiter plate (Greiner) coated with 10 μg/ml Poly-D-lysine (Sigma-Aldrich). Calcium imaging experiments using an automated fluorometric imaging plate reader (FLIPR) (Molecular Devices) have been performed 24-32 h later essentially as described previously (Bufe B., et al. (2005) Curr. Biol. 15, 322-327). Tastants (Sigma-Aldrich) were dissolved and administered in the following solution: 130 mM NaCl, 5 mM KCl, 10 mM HEPES, 2 mM CaCl2, and 10 mM glucose, pH 7.4. […] For calculation of dose-response curves, the peak fluorescence responses after addition of compounds were corrected for and normalized to background fluorescence (ΔF/F=(F−F0)/F0), and baseline noise was subtracted. […]", "note": "At least one read-out could not be matched to a standard name with certainty.", "data": [{"molecule": "CCNC(=S)NCC", "note": "[diethylthiourea, N,N′-diethylthiourea]", "values": [{"measurement": "effect on EC50 values of the agonists", "result": "clear right shift of the EC50 values"}]}]}
